The values that follow come from doi:10.1101/2025.10.31.685692.

The assay has as its target T1, FLAG-HA-tagged ZMYND11 (endogenous, Zmynd11-FH knock-in mouse) (mouse (endogenous in brain tissue)) (UniProt Q8R5C8).
T1 sequence: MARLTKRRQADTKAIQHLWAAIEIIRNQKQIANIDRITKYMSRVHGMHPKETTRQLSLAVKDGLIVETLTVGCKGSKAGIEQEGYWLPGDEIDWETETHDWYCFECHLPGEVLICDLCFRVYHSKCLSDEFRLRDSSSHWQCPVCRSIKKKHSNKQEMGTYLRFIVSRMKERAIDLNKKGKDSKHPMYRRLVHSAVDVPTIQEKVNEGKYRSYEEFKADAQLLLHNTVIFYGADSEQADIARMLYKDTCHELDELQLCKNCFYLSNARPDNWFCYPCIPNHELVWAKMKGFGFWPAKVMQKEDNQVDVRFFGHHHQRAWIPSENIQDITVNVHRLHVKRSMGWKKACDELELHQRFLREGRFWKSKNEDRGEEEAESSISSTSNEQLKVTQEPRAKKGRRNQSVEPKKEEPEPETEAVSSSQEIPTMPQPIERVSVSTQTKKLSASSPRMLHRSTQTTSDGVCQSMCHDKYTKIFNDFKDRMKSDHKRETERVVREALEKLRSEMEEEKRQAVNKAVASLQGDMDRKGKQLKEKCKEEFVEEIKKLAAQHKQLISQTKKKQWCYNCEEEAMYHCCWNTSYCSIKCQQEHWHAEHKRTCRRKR
Nature of the assay: affinity purification with mass spectrometry; anti-FLAG (anti-DYKDDDK magnetic agarose) immunoprecipitation of endogenous FLAG-HA-ZMYND11 from nuclear lysates (420 mM NaCl extract plus MNase-digested chromatin, diluted to 150 mM NaCl) of Zmynd11-FH whole brain; washes NE1 + 250 mM NaCl; elution with 3XFLAG peptide; LC/MS-MS; wild-type littermates as control.

These are yes or no findings as the source states them, for the method shown. In cells and extracts the contact can be indirect. These calls come from enrichment with a bait or labelling near it, and not all partners need be listed. Sequences can lack the tags named with a protein.

B1: ZBTB38, mouse brain (protein, UniProt Q3LR78 1-1197)
chain: MTVMSLSRDLKDDFHSDTVLSILNEQRIRGILCDVTIIVEDTKFKAHSNVLAASSLYFKNIFWSHTICISSHVLELDDLKAEVFTEILNYIYSSTVVVKRQETVTDLAAAGKKLGISFLEDLSDRNFSNSPGPYVVCITEKGVVKEEKNEKRHEEPAVTNGPRITNAFSIIETENSNNMFSPLDLRASFKKVSDSMRTASLCQERASVCHEVEPVRTLAEHSYAVSSITEAYRSQPPREQDSSSSAKTGKETGDALATKAKPCRKPKPQTQDSDSTTENMPLSLVTCPEVNQERSPQPAPDLSHSEPPSNEGDIHFPREDENQPSDAPGPGAAEVPPLVYNCSCCSKSFDSSTLLSAHMQLHKPTQEPFVCKYCNKQFTTLNRLDRHEQICMRSSHVPIPGGNPPFLENYPTIGQDGTSFRSPESLGPENRIGELSSAGSALSDADHMVKFVNGQMLYSCIVCKRSYVTLSSLRRHANVHSWRRTYPCHYCNKVFALAEYRTRHEIWHTGERRYQCIFCLETFMTYYILKNHQKSFHAIDHRLSINKKTANGGLKPTVYPYKLYRLLPMRCKRAPYKSYRNSSYVSAQGSSQRGESAPDTFIVPNLQSSEMPTLDFQDGRNTLPSSPAVPVETPSRQGAPTSARVKNAEGIKWRKQAVKTNLVDNFDSTEVSVSSTGNTVSATLQTEPACVSSVGKGSEHSASVISYSGSVPSVIVHSSQFSSVIKHSNTIASLTNSNHKSPSQPVVSPSLIKDSKPETDKASKPASRPKSIKEKKKTAPSNRGEITEEAKYIADHGGSSGKTTNAEETSKIETYIAKPALPGTSTNSNVAPLCQITVKIGNEAIVKRHILGSKLFYKRGRKPKYQMQEETLPRENDPETPGDSPLGLCQAECVEMSEAFDEVSDQDSTDKPWRPYYNYKPKKKSKQLRKMRKVKWRKERRSRSPVGRCRYPAELDRAEVKLPPDKAFEEEEEEEENKEMPKLQCELCDGCPDGAAGAGAEGKPHQHLTSKPYICELCAKQFQSSSTLKMHMRCHTGEKPYQCKTCGRCFSVQGNLQKHERIHLGVKEFICQYCNKAFTLNETLKIHERIHTGEKRYHCQFCFQGFLYLSTKRNHERRHIREHDGKGFACFQCPKICKTAAALRMHQKKHLYKTLPKQEETGDTCHENADLLESQLCTDSEDSEQKDDIKAFAENVL
On to B1, for which the binding result was “binds”.
